Data source: PubChem BioAssay AID1259306 (Sanger Institute, 2017)
Purpose: 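Kinase-wide siRNA screen for partners of targeted drugs in colorectal cancer cells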 (primary screen). Cell system: human SNU-C5 colorectal cancer cells. Reagents: siRNA pool against human genes. Treatment: DMSO vehicle alone, or one anchor drug: BYL719 at 1 µM, cetuximab at 5 µg/ml or trametinib at 10 nM, given 24 h into the assay. Read-out: 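Viability versus non-targeting pool averaged across replicates, given as fraction and robust z-score, and synergy scores for BYL719, cetuximab or trametinib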. Scale: robust z-score, knock-down alone: higher = more viable cells. Call rule: 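Essential if knock-down without drug gives a robust z-score under -3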. Meaning of the calls: active = essential (knock-down alone); inactive = no change alone.
The whole screen tested 794 reagents; this is an unselected part. 11 of all reagents (1.4%) count as active. 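Calls reflect knock-down alone; synergy scores play no part, so knock-downs synergising with a drug can be called no change.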 Not all columns of the deposit are shown. Not stated in the record: the amount of reagent, the time to read-out.

Target gene | robust z-score, knock-down alone | outcome
AKT2 (GeneID 208) | 0.585 | inactive
TLK1 (GeneID 9874) | -0.91 | inactive
DGUOK (GeneID 1716) | 0.989 | inactive
MARK2 (GeneID 2011) | 0.989 | inactive
SPHK2 (GeneID 56848) | 0.989 | inactive
SGK2 (GeneID 10110) | 0.353 | inactive
TNNI3K (GeneID 51086) | 0.989 | inactive
MAPK1 (GeneID 5594) | 0.194 | inactive
MASTL (GeneID 84930) | -0.868 | inactive
JAK2 (GeneID 3717) | -0.0431 | inactive
WNK3 (GeneID 65267) | 0.989 | inactive
RPS6KB1 (GeneID 6198) | 0.801 | inactive
GSK3B (GeneID 2932) | 0.418 | inactive
RPS6KA3 (GeneID 6197) | 0.989 | inactive
PIP4K2C (GeneID 79837) | 0.326 | inactive
HIPK2 (GeneID 28996) | 0.219 | inactive
ZC3H11A (GeneID 9877) | -0.77 | inactive
SBK1 (GeneID 388228) | 0.925 | inactive
NTN4 (GeneID 59277) | 0.278 | inactive
INSR (GeneID 3643) | -0.164 | inactive
PRKCI (GeneID 5584) | 0.358 | inactive
PI4KB (GeneID 5298) | 0.989 | inactive
MAP3K4 (GeneID 4216) | 0.744 | inactive
NPR2 (GeneID 4882) | -0.635 | inactive
TSKS (GeneID 60385) | 0.989 | inactive
VRK3 (GeneID 51231) | 0.172 | inactive
XYLB (GeneID 9942) | 0.983 | inactive
CSNK2B (GeneID 1460) | 0.51 | inactive
TP53 (GeneID 7157) | -2.03 | inactive
SRGAP3 (GeneID 9901) | 0.0738 | inactive
NRBP2 (GeneID 340371) | -0.544 | inactive
SPHK1 (GeneID 8877) | 0.00802 | inactive
MAGI1 (GeneID 9223) | -1.06 | inactive
PGK1 (GeneID 5230) | -0.292 | inactive
STK26 (GeneID 51765) | 0.359 | inactive
PRKD1 (GeneID 5587) | 0.931 | inactive
DGKI (GeneID 9162) | 0.989 | inactive
EFNA4 (GeneID 1945) | 0.0652 | inactive
EGFR (GeneID 1956) | -0.787 | inactive
CKMT2 (GeneID 1160) | 0.399 | inactive
FLT3 (GeneID 2322) | -0.448 | inactive
FGFRL1 (GeneID 53834) | 0.956 | inactive
MTOR (GeneID 2475) | 0.547 | inactive
MYLK3 (GeneID 91807) | 0.0588 | inactive
TTBK2 (GeneID 146057) | -0.554 | inactive
PTK2B (GeneID 2185) | 0.989 | inactive
MKNK1 (GeneID 8569) | 0.989 | inactive
TCF7L2 (GeneID 6934) | 0.806 | inactive
MAK (GeneID 4117) | -0.61 | inactive
MAP3K19 (GeneID 80122) | -1.79 | inactive
GK2 (GeneID 2712) | 0.617 | inactive
PIP4K2A (GeneID 5305) | -0.359 | inactive
PRKG2 (GeneID 5593) | 0.989 | inactive
MAST4 (GeneID 375449) | 0.575 | inactive
PFKFB3 (GeneID 5209) | 0.532 | inactive
ULK3 (GeneID 25989) | -0.673 | inactive
CDK1 (GeneID 983) | 0.765 | inactive
PKIA (GeneID 5569) | 0.989 | inactive
ERBB3 (GeneID 2065) | 0.0217 | inactive
PIM1 (GeneID 5292) | 0.989 | inactive
AK4 (GeneID 205) | 0.482 | inactive
MAP4K1 (GeneID 11184) | -0.521 | inactive
DCLK3 (GeneID 85443) | -0.323 | inactive

Laid out differently: entries from further up
VRK3 (GeneID 51231)
- robust z-score, knock-down alone: 0.172
- outcome: inactive

XYLB (GeneID 9942)
- robust z-score, knock-down alone: 0.983
- outcome: inactive

CSNK2B (GeneID 1460)
- robust z-score, knock-down alone: 0.51
- outcome: inactive

TP53 (GeneID 7157)
- robust z-score, knock-down alone: -2.03
- outcome: inactive

SRGAP3 (GeneID 9901)
- robust z-score, knock-down alone: 0.0738
- outcome: inactive
